Experimental data published in patent publication US8350064B2, “Fluorescent xanthenes and white light fluorophores” (Board of Supervisors of Louisiana State University And …, priority 2006, dated 2013).
For at least one compound, name, drawing or mass did not settle the structure.

Legend:
[1] = Photobleaching of SNAFR-6 in aqueous solution (phosphate buffer with 1% DMSO); type: physicochemical; settings: fluorescein solution, same conditions as SNAFR-6 (450 W arc lamp, 1 hour)
[2] = Photobleaching decay of SNAFR-2 in MeOH and fluorescein in 0.1 M NaOH; type: physicochemical; settings: excitation 488 nm, after 30 min
Text: We investigated the photostability of SNAFR-2 in MeOH. […] In MeOH, SNAFR-2 can be excited efficiently at 488 nm, which corresponds to an Ar ion laser line. This wavelength also matches well with the absorbance maximum (λabs=493 nm) of fluorescein in aqueous base. We conducted photostability studies in SNAFR-2 and fluorescein solutions, with the concentration of each selected to have an absorbance of 0.03 at 488 nm. The excitation band-pass was opened to 14 nm, the maximum allowed by the instrument we used. The fluorescence signal was collected using both the S- and T-channels of the instrument. S-channel data were collected through a dual monochromator set to the emission maximum of the particular fluorophore. T-channel data were collected through a 550 nm, long-pass filter. High voltage for the photomultiplier tube (PMT) was set to 950 and 500 V for the S and T channels, respectively. […] Fluorescence intensity was monitored at the emission maximum through a dual monochromator following excitation at 543 nm. […] FIGS. 9A and 9B depict the photobleaching decay of SNAFR-2 in MeOH, and of fluorescein in 0.1 M NaOH, monitored at the emission maximum of each compound (FIG. 9A), or through a 550 nm long-pass filter (FIG. 9B). The fluorescence intensity was normalized for each compound as compared to the intensity at time t=0.

## O=C1OC2(c3ccc(O)cc3Oc3cc(O)ccc32)c2ccccc21 [fluorescein, reference compound]
[1]
  fluorescence bleaching: 30%
[2]
  loss of fluorescence (photobleaching): 20-30%
